Laboratory results reported in US5633346A, “Process for systhesizing cyclic peptides” (priority 1992, dated 1997).
Not every detail of the peptide structures is certain; ends, links or a residue may be inferred. Non-standard residues stand in square brackets, D forms with d. Residues, ends and D or L forms follow the SMILES beside them. Hmp(2R,3S) = CC[C@H](C)[C@@H](O)C(=O)O; NMeVal(β-OH) = CN[C@H](C(=O)O)C(C)(C)O; NMeF = CN[C@@H](Cc1ccccc1)C(=O)O; aIle = CC[C@@H](C)[C@H](N)C(=O)O; NMeV = CN[C@H](C(=O)O)C(C)C

System: Test organisms (Candida albicans, C. kefyr, C. grabrata, Cryptococcus neoformans)
Experiment: Antifungal activity, overall statement in text (agar dilution method)
Format: cell-based
Details: partly compared with compound 1

CC[C@@H](C)[C@@H]1NC(=O)[C@@H]2CCCN2C(=O)[C@H](Cc2ccccc2)N(C)C(=O)[C@H](Cc2ccccc2)NC(=O)[C@H](C(C)C)N(C)C(=O)[C@@H]([C@@H](C)CC)OC(=O)[C@H](C(C)(C)O)N(C)C(=O)[C@H](CC(C)C)NC(=O)[C@H](C(C)C)N(C)C1=O [Compound 18, cyclo (L-aIle-L-MeVal-L-Leu-L-βHOMeVal-(2R,3S)-Hmp-L-MeVal-L-Phe-L-MePhe-L- Pro)] (cyclo(F[NMeF]P[aIle][NMeV]L[NMeVal(β-OH)][Hmp(2R,3S)][NMeV])) was tested, and the “antifungal activity (in words)” value was “high activity”.
